The record followed here is publication PMC3942315, “Structural Insights Into DNA Repair by RNase T—An Exonuclease Processing 3′ End of Structured DNA in Repair Pathways” (PLoS Biology, 2014).

No constants are given. Whether binding was seen depends on the method and setting.

The target in one assay is ExoX (E. coli) (UniProt P0AEK0). The assay can be described thus: dynamic light scattering; purified recombinant proteins in solution; conditions not given; both purified.
For the next assay, the target named is ExoI (E. coli) (UniProt P04995). The description is as above.

B1: ExoX (enzyme, UniProt P0AEK0 1-220)
chain: MLRIIDTETCGLQGGIVEIASVDVIDGKIVNPMSHLVRPDRPISPQAMAIHRITEAMVADKPWIEDVIPHYYGSEWYVAHNASFDRRVLPEMPGEWICTMKLARRLWPGIKYSNMALYKTRKLNVQTPPGLHHHRALYDCYITAALLIDIMNTSGWTAEQMADITGRPSLMTTFTFGKYRGKAVSDVAERDPGYLRWLFNNLDSMSPELRLTLKHYLENT
Take B1: the binding result in the assay with ExoX (E. coli) is on record as “no binding”.

B2: ExoI (enzyme, UniProt P04995 1-475)
chain: MMNDGKQQSTFLFHDYETFGTHPALDRPAQFAAIRTDSEFNVIGEPEVFYCKPADDYLPQPGAVLITGITPQEARAKGENEAAFAARIHSLFTVPKTCILGYNNVRFDDEVTRNIFYRNFYDPYAWSWQHDNSRWDLLDVMRACYALRPEGINWPENDDGLPSFRLEHLTKANGIEHSNAHDAMADVYATIAMAKLVKTRQPRLFDYLFTHRNKHKLMALIDVPQMKPLVHVSGMFGAWRGNTSWVAPLAWHPENRNAVIMVDLAGDISPLLELDSDTLRERLYTAKTDLGDNAAVPVKLVHINKCPVLAQANTLRPEDADRLGINRQHCLDNLKILRENPQVREKVVAIFAEAEPFTPSDNVDAQLYNGFFSDADRAAMKIVLETEPRNLPALDITFVDKRIEKLLFNYRARNFPGTLDYAEQQRWLEHRRQVFTPEFLQGYADELQMLVQQYADDKEKVALLKALWQYAEEIV
As to B2, the binding entry with ExoI (E. coli) is given as “no binding”.
